# Results from PubChem BioAssay AID1347423 (Functional Genomics Laboratory (NCATS/FGL), 2020).
# About 210 (0.4%) of roughly 52,000 sequences were called active.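 The calls were made as follows: active = gene whose silencing raises cell survival under the drug, median off-target-corrected z-score across its silencing RNAs 2 or more; inactive = the rest.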 The list shows a part of the results.
# Test: Resistance to Poly (ADP-Ribose) Polymerase inhibitor: Gene Identification via Genome-wide siRNA Screen
# Conditions: mouse BRCA2 R2336H ES cells, olaparib, CellTiter-Glo viability; hits give high values
# How it was run: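 Mouse BRCA2 R2336H ES cells were reverse-transfected with siRNA (20 nM final), treated at 48 h with 500 nM olaparib, and read by CellTiter-Glo after 72 h. Scores: MAD-based z per siRNA, median per gene, seed off-target correction.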
row,Sequence,z-score
1,GGAAGAAGACGGACUUCGGTT against Vapb,inactive: 0.553
2,CCCACCAGAUUUCUACACCTT against 2210413P10Rik,inactive: 1.05
3,GCCAACAUGAGCUCAACAATT against Fkhl18,inactive: -0.75
4,GGCUAGUGUCAGAAAACCCTT against Tfrc,inactive: 1.27
5,GGAACUGCUGUGGAGAAAGTT against LOC229512,inactive: -1.24
6,GGAAGAGUCAACAUAAUAGTT against Galk2,inactive: -1.16
7,GGCUAUGUGAAUGAAGGGATT against Fbxl14,inactive: -0.24
8,GGUUUGUGCGGACUUGAUCTT against Rps20,inactive: -3.23
9,GCUGCUAUAUCUGAAAACATT against BC052883,inactive: 0.519
10,UAGACACUAACCAGCUGGATT against Olfr1307,inactive: -2.34
11,CCUGGUACAAUCAAACUGCTT against 9930039A11Rik,inactive: 1.54
12,GGUGCUCAAUAAACACAUGTT against Zfp98,inactive: 3.42
13,GGUUUUGUGAGCAACCUGCTT against Abcb6,inactive: -0.496
14,CGAUGCAUUUUAAAGAUGUTT against Pde8b,inactive: -0.432
15,GCCCGUCGGAUAUAAGAUUTT against Cd3z,inactive: -0.659
16,GGUGACAAACUGAUUUUAATT against Mov10l1,inactive: 0.808
17,CGGACUGAUAACUUGGGAATT against Mtpn,inactive: -0.925
18,GGGCCUAUAUAACAUCUUGTT against Usp11,active: 0.581
19,GGAAAUGAAGCCAAAAUAATT against Rab33b,inactive: 0.455
20,CCAGAACUCUCGACACCCUTT against Tlx1,inactive: 0.178
21,GCAAAUUGACCAGUCUUUUTT against D230025D16Rik,inactive: 2.45
22,CGCACAGACUUGCUUGGACTT against 4933401K09Rik,inactive: -0.746
23,GGCCUACCUUACCCUAAGATT against Adam32,inactive: -0.43

row,Sequence,z-score
1,GGAGAGCAUUCCUUGGAUUTT against Lgr8,inactive: -0.756
2,GCAGCAGUAAUGAUGGAUCTT against Ncoa3,inactive: 0.728
3,GGAUCGAGCCAAGAGCUGUTT against Rohn,inactive: -0.0164
4,GCGAAGCUAGGUUUACUGUTT against Gpr132,inactive: 1.89
5,CCUGUUGUAUUGUUUAGCGTT against Eif2c2,inactive: 0.0353
6,GGCUCUCAAACCCAUGUACTT against Foxf2,inactive: -1.86
7,GCUGAUCACAAACGAUUACTT against Arl9,inactive: -0.86
8,CCCAAGAGAAAACGGUGCCTT against Fscn1,inactive: -0.0244
9,GGACAAUAUGAGUUUUCUGTT against Glb1,inactive: 0.763
10,CGAUAAAGUCGAAAUCUACTT against Stat2,inactive: 0.532
11,GGAGCGGAGAGAAAGCAUCTT against Mpo,inactive: 1.66
12,GGGUGCUCUGAAGAAGCAATT against Olfr488,inactive: -0.834
13,CCAAAAUAAGUGUGGUCAATT against Gm691,inactive: 1.93
14,GGUAUCCAUGUUAUGCUGUTT against MGC25972,inactive: -0.28
15,GCUCAGAAGUCCAAGAUACTT against Casp12,inactive: 2.35
16,GGACCUAGUGCGUUCCAAATT against 1700026P10Rik,inactive: -1.94
17,CCUUCAAUCUUUCUUUCUGTT against Olfr1465,inactive: -0.713
18,CAAUAAUGAACAGUAGAGUTT against Olfr798,inactive: 0.651
19,CCAUGAAGACAGGACACUUTT against 4930451E10Rik,inactive: 0.279
20,GGCAACUCCGUAUUAUAACTT against Pcdhb10,inactive: 1.48
21,CGAGUACCAUCUUUAUCCATT against Hlcs,inactive: 1.39
22,GGACUACUUUAAGGAUUGGTT against Tfip11,inactive: -1.3
23,GGUAAUGAUCCAUUCACCATT against Ly75,inactive: 1.96

row,Sequence,z-score
1,GGUUCAGACUGCAUCAGGCTT against Cspg3,inactive: -0.695
2,GCAGAAGUUCAUUUUCCUATT against Olfr145,inactive: 0.683
3,GCAGAUGUUGCGUUUCCUGTT against BC006662,inactive: 0.437
4,GCCAUAUAAUUUGACAGAGTT against 9930022N03Rik,inactive: -0.734
5,CCAGGAGAACAGGAUAUAUTT against Fgr,inactive: -1.61
6,GGGCACAUUCAGAUGUUCGTT against Nmnat2,inactive: -0.647
7,GCCGAACGAAUCCUCAAGUTT against A130009K11Rik,inactive: 0.326
8,CCUAUGAGGAGGUACUAAATT against Itih1,inactive: -1.06
9,GGUACUUGUAUUGCUCAUUTT against Asf1b,inactive: 0.325
10,CCAACAAAAACGUACUUUGTT against 9530091C08Rik,inactive: 0.016
11,CCUGAUGUUAUUCCUUUUATT against D930050H05Rik,inactive: 0.0593
12,GGUUGUGGCCAUCAAGAAATT against BC048082,inactive: 1.59
13,GCAGAACCUUGGAAAAAAATT against Mef2a,inactive: 1.01
14,CCAUGGCCAAGAACUAGUUTT against Hp,inactive: -0.0037
15,GCAAUGCUUACUUUUAUGGTT against Zmpste24,inactive: -0.00423
16,GGACUUGUCAGCACUGAGCTT against BB219290,inactive: 1.25
17,GCACAAUGGAAGGUGUCCUTT against Tas2r114,inactive: 0.354
18,GGAAGGUCUUUGGGAACUGTT against Insl5,inactive: -0.877
19,CCUGAAUGGAAAGAAUUGGTT against LOC622129,inactive: 0.161
20,GGAAUCUCUGAAGAAGAAGTT against AI591476,inactive: -0.789
21,GGAGGCAGUUCGAAGAAUUTT against Rab9,inactive: -0.136

# A few values from the results shown:
# z-score with GGAGGCAGUUCGAAGAAUUTT against Rab9 is entered as inactive: -0.136
# z-score with GGAAUCUCUGAAGAAGAAGTT against AI591476 is entered as inactive: -0.789
# z-score with GCAGAAGUUCAUUUUCCUATT against Olfr145 is entered as inactive: 0.683
# z-score with GCAGAACCUUGGAAAAAAATT against Mef2a is entered as inactive: 1.01
# z-score with CCAACAAAAACGUACUUUGTT against 9530091C08Rik is entered as inactive: 0.016
